Positions count from the first letter of the chain named. Names may count otherwise. Results are given in words; binding and its absence hold for the method and conditions named. Binding calls can cover weak binding; strength is not graded here. Tags and fused reporters may be left off the sequences shown.
B1: HIS-6 VPS41^WT (His-hVPS41, recombinant) (protein, UniProt P49754-1 1-854)
chain: MAEAEEQETGSLEESTDESEEEESEEEPKLKYERLSNGVTEILQKDAASCMTVHDKFLALGTHYGKVYLLDVQGNITQKFDVSPVKINQISLDESGEHMGVCSEDGKVQVFGLYSGEEFHETFDCPIKIIAVHPHFVRSSCKQFVTGGKKLLLFERSWMNRWKSAVLHEGEGNIRSVKWRGHLIAWANNMGVKIFDIISKQRITNVPRDDISLRPDMYPCSLCWKDNVTLIIGWGTSVKVCSVKERHASEMRDLPSRYVEIVSQFETEFYISGLAPLCDQLVVLSYVKEISEKTEREYCARPRLDIIQPLSETCEEISSDALTVRGFQENECRDYHLEYSEGESLFYIVSPRDVVVAKERDQDDHIDWLLEKKKYEEALMAAEISQKNIKRHKILDIGLAYINHLVERGDYDIAARKCQKILGKNAALWEYEVYKFKEIGQLKAISPYLPRGDPVLKPLIYEMILHEFLESDYEGFATLIREWPGDLYNNSVIVQAVRDHLKKDSQNKTLLKTLAELYTYDKNYGNALEIYLTLRHKDVFQLIHKHNLFSSIKDKIVLLMDFDSEKAVDMLLDNEDKISIKKVVEELEDRPELQHVYLHKLFKRDHHKGQRYHEKQISLYAEYDRPNLLPFLRDSTHCPLEKALEICQQRNFVEETVYLLSRMGNSRSALKMIMEELHDVDKAIEFAKEQDDGELWEDLILYSIDKPPFITGLLNNIGTHVDPILLIHRIKEGMEIPNLRDSLVKILQDYNLQILLREGCKKILVADSLSLLKKMHRTQMKGVLVDEENICESCLSPILPSDAAKPFSVVVFHCRHMFHKECLPMPSMNSAAQFCNICSAKNRGPGSAILEMKK
B2: HIS-6 VPS41^S285P (His-hVPS41 S285P, recombinant) (protein, UniProt P49754-1 1-854)
chain: B1 chain with S285P

Target: MBP-AP-3 (appendage domain of rat AP-3 delta fused to MBP) (rat)
Assay: pull-down; 50 µg MBP-AP-3 loaded on amylose resin for 30 min at 4°C; varying amounts of His-VPS41 incubated with the resin; bound protein read by quantitative fluorescence immunoblotting; both purified

Row | Binder | binding
1 | B1 | binds
2 | B2 | binds
